According to article PMC12824264:
These are yes or no findings as the source states them, for the method shown. In cells and extracts the contact can be indirect. A yes stands for co-enrichment or nearness to the bait. Other partners may have been found. A no says only that the protein was not detected with the bait.

Biological target: T1, endogenous endoglin (ENG) (human (endogenous in HAOECs, HUVECs, HPAECs)) (UniProt P17813)
T1 sequence: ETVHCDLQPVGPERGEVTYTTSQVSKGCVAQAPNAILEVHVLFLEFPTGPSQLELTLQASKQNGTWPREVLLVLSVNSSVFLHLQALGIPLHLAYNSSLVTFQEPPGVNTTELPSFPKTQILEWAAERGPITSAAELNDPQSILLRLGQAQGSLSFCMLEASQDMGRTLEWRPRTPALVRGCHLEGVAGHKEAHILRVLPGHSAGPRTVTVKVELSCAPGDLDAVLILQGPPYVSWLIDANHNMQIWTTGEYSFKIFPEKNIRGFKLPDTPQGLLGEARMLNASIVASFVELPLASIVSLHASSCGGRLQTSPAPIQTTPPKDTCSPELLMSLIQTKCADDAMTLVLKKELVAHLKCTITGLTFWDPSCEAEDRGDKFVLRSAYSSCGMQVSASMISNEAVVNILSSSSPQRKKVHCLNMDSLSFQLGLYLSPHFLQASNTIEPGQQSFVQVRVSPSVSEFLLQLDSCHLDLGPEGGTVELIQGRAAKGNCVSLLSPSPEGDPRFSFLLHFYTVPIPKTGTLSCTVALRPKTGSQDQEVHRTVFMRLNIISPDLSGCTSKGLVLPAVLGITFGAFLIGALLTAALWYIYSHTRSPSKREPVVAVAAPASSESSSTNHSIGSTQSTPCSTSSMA
Test: affinity purification with mass spectrometry; TRC105 (anti-ENG) NHS affinity column against a BSA-NHS control column; lysates (1% Triton-X100/PBS, 2 mM EDTA) of HAOECs, HUVECs and HPAECs kept in 0.1% FBS, 10% FBS, or 0.1% FBS with 0.25 ng/ml pro:BMP9 for 40 min; elution with 0.15 M glycine pH 2.5; LC-MS/MS

binding: no binding
B1: RALA (protein, UniProt P11233 1-206)
chain: MAANKPKGQNSLALHKVIMVGSGGVGKSALTLQFMYDEFVEDYEPTKADSYRKKVVLDGEEVQIDILDTAGQEDYAAIRDNYFRSGEGFLCVFSITEMESFAATADFREQILRVKEDENVPFLLVGNKSDLEDKRQVSVEEAKNRAEQWNVNYVETSAKTRANVDKVFFDLMREIRARKMEDSKEKNGKKKRKSLAKRIRERCCIL
